Drawing on patent US8524454 (RESEARCH FOUNDATION OF STATE UNIVERSITY OF NEW YORK, dated 2013), this text covers binding for two molecules.

Experiment [1] deals with transcobalamin receptor (TCblR) purified from human placenta (human). Description: radiolabeled TC-Cbl binding assay.
For experiment [2] the target is unchanged. Description: affinity capture of the receptor-TC-Cbl complex from solubilised placental membranes.
Experiment [3] shares this target. Description: radiolabeled TC-Cbl binding assay (FIG. 6A).
Experiment [4] has the same target. Description: aminopropyl Cbl-TC affinity matrix, photo-dissociation, SDS-PAGE (FIG. 2).
The target is the same in experiment [5]. Description: radiolabeled Cbl-TC binding to purified TCblR competed by unlabeled apo-TC (FIG. 12).

Results are given in words; binding and its absence hold for the method and conditions named. Binding calls can cover weak binding; strength is not graded here.

B1: holo-transcobalamin (recombinant human TC saturated with cobalamin) (ligand, UniProt P20062 19-427, looked up)
chain: EMCEIPEMDSHLVEKLGQHLLPWMDRLSLEHLNPSIYVGLRLSSLQAGTKEDLYLHSLKLGYQQCLLGSAFSEDDGDCQGKPSMGQLALYLLALRANCEFVRGHKGDRLVSQLKWFLEDEKRAIGHDHKGHPHTSYYQYGLGILALCLHQKRVHDSVVDKLLYAVEPFHQGHHSVDTAAMAGLAFTCLKRSNFNPGRRQRITMAIRTVREEILKAQTPEGHFGNVYSTPLALQFLMTSPMRGAELGTACLKARVALLASLQDGAFQNALMISQLLPVLNHKTYIDLIFPDCLAPRVMLEPAAETIPQTQEIISVTLQVLSLLPPYRQSISVLAGSTVEDVLKKAHELGGFTYETQASLSGPYLTSVMGKAAGEREFWQLLRDPNTPLLQGIADYRPKDGETIELRLVSW
notes: also called TC-Cbl; holo TC
For B1, the binding entry in experiment [1], in experiment [2], in experiment [3] and in experiment [4] was “binds” throughout.

B2: apo-transcobalamin (recombinant TC without cobalamin) (ligand, human, UniProt P20062 19-427, looked up)
chain: B1 chain
Regarding B2, the binding result in experiment [5] is “binds”.
